Data on 35 compounds can be found in PubChem BioAssay AID1487 (National Center for Advancing Translational Sciences (NCATS), 2009).

A short description of this test: qHTS Assay for Modulators of Lamin A Splicing. The settings on record: HeLa LMNA splicing GFP/RFP minigene ratio, 48 h. A digest of the protocol:
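S3 HeLa stable clones carrying a lamin A-EGFP splicing minigene plus DsRed2 were seeded at 600 cells/well in Opti-MEM with 2% FBS, pin-dosed and incubated 48 h at 37°C. Acumen cytometry (488 nm) gave the GFP/RFP total-intensity ratio.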

Where [1] appears, read: measured here: GFP splicing reporter channel.
Setting [2] is: measured here: RFP viability control channel.

SMILES strings stand for the structures. This is one part of the list. Further columns of the screen follow, without active or inactive calls. Compounds called inactive in the main read-out are mostly missing here. Potencies come from curve fits of mixed quality, noted in brackets.

The AC50 is the concentration giving half of the maximal activity seen.

For the compound `CC(C)c1ccc(C(=O)NCCCN2CCN(CCCNC(=O)c3ccc(C(C)C)cc3)CC2)cc1`, the AC50 reads like this: under setting [1], 20 µM [rising, single point]; under setting [2], 35.5 µM [rising, single point].
With `Cc1sc2ncnc(SCC(=O)c3cccs3)c2c1C`, under setting [2], the AC50 was 35.5 µM [rising, single point].
Same read-out and setting: as for `COC(c1ccccc1)c1nnc(CCC(=O)NC2C3CC4CC(C3)CC2C4)o1` (centres undefined), the figure is 0.01 µM [falling, full curve, poor fit].
As to `O=C(Nc1nc(-c2ccc(Br)cc2)cs1)c1cccnc1`, the AC50 under setting [1] is 0.0316 µM [rising, partial curve, poor fit] and the concentration at half-maximal activity (AC50) under setting [2] was 0.00447 µM [rising, full curve, poor fit].
In the case of `CC(C)(C)c1cc(C(=O)N/N=C/c2ccc(F)cc2)n(-c2ccccc2)n1`, the AC50 under setting [2] is 10 µM [rising, partial curve].
For `Cc1nc(SCC(C)C)[nH]c(=O)c1Cc1ccccc1`, the half-maximal activity concentration (AC50) under setting [1] was 0.00447 µM [rising, full curve, poor fit] and the AC50 under setting [2] was 35.5 µM [rising, partial curve, poor fit].
Take `CCc1nc2c(sc3nc4c(cc32)COC(C)(C)C4)c(=O)n1CCN(CC)CC`: the AC50 under setting [2] was 0.631 µM [rising, full curve].
On the same count and under the same terms, in the case of `Cc1ccc(-c2csc3ncn(-n4c(C)ccc4C)c(=O)c23)o1` it was 15.8 µM [falling, partial curve, poor fit].
With `c1coc(CNc2nc3sc4c(c3c3ncnn23)CCCC4)c1`, the AC50 by setting is: under setting [1], 35.5 µM [rising, single point]; under setting [2], 35.5 µM [rising, single point].
As for `COc1ccc(NC(=O)/C(Cl)=C(/Cl)S(=O)Cc2ccc(C)cc2)cn1` (centres undefined), the AC50 is, setting by setting: under setting [1], 0.794 µM [falling, full curve]; under setting [2], 12.6 µM [falling, partial curve].
For the compound `N#CC1=C(c2ccccc2)/C(=C/c2ccccc2)OC1=O`, the AC50 was 11.2 µM [falling, partial curve] under setting [1] and 17.8 µM [falling, partial curve] under setting [2].
On to `CC(=O)N1CCc2cc(S(=O)(=O)NCCC(=O)NC3CCCc4ccccc43)ccc21` (centres undefined), for which, under setting [2], the AC50 was 15.8 µM [rising, single point].
Consider `O=S(=O)(c1ccc(Cl)cc1)c1snnc1-c1ccccc1`, for which the AC50 reads like this: under setting [1], 35.5 µM [falling, single point]; under setting [2], 20 µM [falling, single point].
Regarding `CSc1cccc(NC(=O)CCCOc2ccc(Cl)cc2Cl)c1`, the AC50 runs as follows: under setting [1], 31.6 µM [rising, single point]; under setting [2], 31.6 µM [rising, single point].
For `Cn1cc(CNCc2cnc3ccccn23)c(-c2ccc(Oc3ccccc3)cc2)n1`, the half-maximal activity concentration (AC50) runs as follows: under setting [1], 6.31 µM [falling, partial curve]; under setting [2], 3.16 µM [falling, full curve, poor fit].
`COc1cc(NS(=O)(=O)c2ccc(NC(C)=O)cc2)cc(OC)c1`: the AC50 under setting [2] was 10 µM [rising, partial curve].
Same read-out and setting: in the case of `CCNc1ccc(P(=O)(c2ccccc2)c2ccccc2)cc1` it was 0.00316 µM [falling, full curve, poor fit].
Turning to `Cc1ccc(C)n1NC(=O)c1ccccc1[N+](=O)[O-]`, the AC50 under setting [1] was 2.51 µM [falling, single point].
With `CNC(=O)c1c(NC(=O)c2nc3ccccc3s2)sc2c1CCC2`, the AC50 under setting [2] was 35.5 µM [rising, single point].
As for `COc1cccc(-c2cc(C(F)(F)F)c3c(N)c(C#N)sc3n2)c1`, under setting [1], the AC50 is 0.562 µM [rising, full curve, poor fit].
As for `O=C(CNc1cc(S(=O)(=O)N2CCCC2)ccc1OCC(F)(F)F)Nc1ccc(SC(F)F)cc1`, the concentration at half-maximal activity (AC50) runs as follows: under setting [1], 3.16 µM [rising, full curve]; under setting [2], 14.1 µM [rising, single point].
On to `CNCCCN1c2ccccc2CCc2ccccc21`, for which the AC50 runs as follows: under setting [1], 8.91 µM [falling, partial curve]; under setting [2], 20 µM [rising, partial curve].
As for `Cc1oc(-c2ccc(Cl)cc2)nc1CS(=O)CC(=O)N1CCN(c2cccc(C(F)(F)F)c2)CC1` (centres undefined), the AC50 under setting [1] was 17.8 µM [falling, single point] and the AC50 under setting [2] is 17.8 µM [falling, partial curve, poor fit].
Regarding `Cc1ccc(Nc2nc(=O)c3cccnc3s2)cc1`, the half-maximal activity concentration (AC50) under setting [2] was 17.8 µM [rising, partial curve, poor fit].
As to `COc1cc(/C=N/Nc2nc(Nc3ccccc3)nc(-n3nc(C)cc3C)n2)cc(OC)c1OC`, the AC50 under setting [1] was 20 µM [falling, single point] and the AC50 under setting [2] is 35.5 µM [falling, single point].
For `Cc1ccc(CN2C(=O)N/C(=C/c3cc(C)n(-c4ccccn4)c3C)C2=O)cc1`, the concentration at half-maximal activity (AC50) under setting [2] was 35.5 µM [rising, single point].
Same read-out and setting: as for `O=c1cc(-c2ccccc2Cl)oc2c(NS(=O)(=O)c3cc(Cl)cc(Cl)c3O)ccc(O)c12`, the figure is 3.98 µM [rising, full curve].
The same measure, in the same setting: in the case of `O=C(O)C1(S(=O)(=O)CCC(F)=C(F)F)CC1` it was 2.82 µM [falling, partial curve, poor fit]; in that of `O=C(C1COc2ccccc2O1)N1CCN(c2nc3ccc(F)cc3s2)CC1` (centres undefined), 20 µM [falling, partial curve, poor fit].
Consider `NC(=O)C1CCN(C(=O)c2cccc(NC(=O)c3nsc4ccccc34)c2)CC1`, for which the AC50 under setting [1] was 0.631 µM [rising, full curve, poor fit].
The same measure, in the same setting: as for `O=C(O)c1cc(-n2cccc2)ccc1N1CCOCC1`, the figure is 3.98 µM [rising, single point].
As to `N#Cc1nc(Cc2cccc3ccccc23)oc1NCCN1CCCCC1`, the AC50 under setting [2] was 35.5 µM [rising, single point].
On to `O=C(C1COc2ccccc2O1)N(Cc1cccnc1)c1nc2ccc(Cl)cc2s1` (centres undefined), for which, under setting [1], the AC50 was 0.00447 µM [falling, full curve, poor fit].
In the case of `COc1ccc(S(=O)(=O)N(C)C)cc1NC(=O)CSc1nncs1`, the AC50 under setting [2] was 20 µM [rising, partial curve, poor fit].
As for `Cc1ccccc1-n1ncc2c([N+](=O)[O-])cc([N+](=O)[O-])cc21`, the AC50 is, setting by setting: under setting [1], 35.5 µM [falling, single point]; under setting [2], 25.1 µM [falling, single point].
